Laboratory results from patent US20140308283A1.
These are yes or no findings as the source states them, for the method shown. For some assays here: Binding seen in cells or lysates may run through a third protein. Some entries that bind do so weakly or less than the wild type.

T1: human CAPRIN-1 recombinant protein (human) (UniProt Q14444)
T1 sequence: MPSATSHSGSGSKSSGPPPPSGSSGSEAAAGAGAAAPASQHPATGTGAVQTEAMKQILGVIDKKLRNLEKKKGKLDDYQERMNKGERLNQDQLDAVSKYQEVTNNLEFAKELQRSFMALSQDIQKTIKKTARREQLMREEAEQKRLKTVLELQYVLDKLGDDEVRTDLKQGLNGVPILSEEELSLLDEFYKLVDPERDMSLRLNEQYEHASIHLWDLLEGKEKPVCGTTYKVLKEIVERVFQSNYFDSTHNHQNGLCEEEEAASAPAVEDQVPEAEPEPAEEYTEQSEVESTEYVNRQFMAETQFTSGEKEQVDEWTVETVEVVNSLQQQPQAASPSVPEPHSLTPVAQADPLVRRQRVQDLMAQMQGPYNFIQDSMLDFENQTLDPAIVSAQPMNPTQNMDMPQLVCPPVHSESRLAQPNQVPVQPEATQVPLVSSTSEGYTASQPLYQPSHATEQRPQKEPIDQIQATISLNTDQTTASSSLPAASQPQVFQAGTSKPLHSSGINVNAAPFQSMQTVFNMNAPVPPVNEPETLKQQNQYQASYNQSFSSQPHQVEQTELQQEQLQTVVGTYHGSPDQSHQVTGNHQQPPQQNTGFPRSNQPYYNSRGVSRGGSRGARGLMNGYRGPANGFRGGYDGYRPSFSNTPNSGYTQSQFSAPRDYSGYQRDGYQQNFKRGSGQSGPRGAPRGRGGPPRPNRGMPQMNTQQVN

T2: polypeptide of SEQ ID NO: 273 (human)
T2 sequence (peptide): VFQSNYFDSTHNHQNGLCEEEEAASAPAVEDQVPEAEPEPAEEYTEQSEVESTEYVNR


Legend:
[1] = target: CAPRIN-1 protein expressed on the cell membrane surface of human cancer cell lines (human) (UniProt Q14444); test: flow cytometry, hybridoma supernatant on MDA-MB-231V cells
[2] = target: T1, human CAPRIN-1 recombinant protein (human); test: ELISA, hybridoma supernatant on plate-coated recombinant CAPRIN-1
[3] = target: T2, polypeptide of SEQ ID NO: 273 (human); test: trypsin digestion of antibody-bound reduced alkylated CAPRIN-1, protein A capture, LC-MS

binding [1] | binding [2] | binding [3] | Binder
binds | – | – | chicken monoclonal antibody #3 (antibody, V domains shown) VH: AVTLDESGGGLQTPGGALSLVCKASGFTFSGYDMLWVRQAPGKGLEWVAGIGSTGGGTDYGAAVKGRATISRDNGQSTVRLQLNNLRAEDTATYYCAKVAGGCNSGYCRDSPGSIDAWGHGTEVIVS VL: AVTQQPASVSANPGETVKITCSGGGSRNYYGWYQQKSPGSVPVTVIYYDDQRPSNIPSRFSGALSGSTSTLTITGVQADDEAVYFCGSADSNTYEGSFGAGTTLTVL
binds | – | – | mouse monoclonal antibody #4 (antibody, V domains shown) VH: GAELVRSGASVKMSCKASGYSFTDYNMYWVKQTPGQGLEWIGYIYPGNGGTNYNQKFKGKATLTADTSSSTAYMQISSLTSEDSAVYFCARDYDDGGYAMDYWGQGTTVTVSS VL: DIQMTQSPASLSASVGETVTITCRASGNIHNYLTWYQQKQGKSPQLLVYNAKTLADGVPSRFSGSGSGTQYSLKINRLQPEDFGSYYCQHFWNIPWTFGGGTKLNSR
binds | – | – | chicken monoclonal antibody #1 (antibody, V domains shown) VH: AVTLDESGGGLQMSRGGLSLVCKASGFDFSSYQMNWIRQAPGKGLEFVAAINKFGNSTGHGAAVKGRVTISRDNGQSTVRLQLNNLRAEDTAIYFCTKHAYGYCGSGTWCAAGEIDAWGHGTEVIVSS VL: QAASTQPSSVSANPGETVEITCSGGGSYSYGWFQQKSPGSAPVTVIYYNNKRPSDIPSRFSGSKSGSTGTLTITGVQADDEAVYYCGSGDSTDTAVFGAGTTLTVLG
binds | binds | binds | mouse monoclonal antibody #12 (antibody, V domains shown) VH: EVQLHQFGAELVKPGASVKISCKASGYTFTDYNMDWVKQSHGKSLEWIGDINPNYDSTSYNQKFKGKATLTVDKSSSTAYMELRSLTSEDTAVYYCARSRSYDYEGFAYWGQGTLVTVSA VL: DIQMTQSPASLSASVGETVTITCRASGNIHNYLAWYQQKQGKSPQLLVYNAKTLADGVPSRFSGSGSGTQYSLKINSLQPEDFGSYYCQHFWSTLTFGAGTKLELKR
binds | – | – | chicken monoclonal antibody #2 (antibody, V domains shown) VH: AVTLDESGGGLQTPGGGLSLVCKASGFTFSSFDMGWVRQAPGKGLEFVAQINDAGSRTWYATAVKGRATISRDNGQTTVRLQLNNLRAEDTGTYYCTRGSGYVGAGAIDAWGHGTEVIVS VL: AALTQPSSVSANPGETVKITCSGGSGYYGWYQQQKSPGSAPVTVIYQNDKRPSDIPSRFSGSGSGSTNTLTITGVQAEDEAVYFCGRYDSTDSGIFGAGTTLTVL
binds | – | – | mouse monoclonal antibody #5 (antibody, V domains shown) VH: DAELVKPGASVKISCKASGYTFTDHSIHWVQQKPEQGLEWIGYISPGNGNIKYNEKFKGKATLTADKSSSTAYMQLNSLTSEDSAVYFCKRSLGRGGPYYFDYWGQGTTVTVSS VL: DIVLTQAAPSLPVTPGESVSISCRSSKSLLHSNGNTYLYWFLQRPGQSPQLLIYRMSNLASGVPDRFSGSGSGTAFTLRISRVEAEDVGVYYCMQHREYPVTFGSGPN
